Measured values as given in publication PMC4776139, “Extended string-like binding of the phosphorylated HP1α N-terminal tail to the lysine 9-methylated histone H3 tail” (Scientific Reports, 2016).
These are yes or no findings as the source states them, for the method shown. Each block holds one substance with its values, some of them ahead of it.

By UniProt entry, the sequences of proteins in these tests, tags left out. Where a name states a change or a piece, a line headed by the entry shows the natural chain unless it says otherwise. Chains listed by the source or under a name are the forms on record and can include a tag or linker.
phosphorylated HP1α chromodomain with N-terminal tail (phos-NCD, amino acids 1–80, phosphorylated at Ser11–14) (Q61686, form named): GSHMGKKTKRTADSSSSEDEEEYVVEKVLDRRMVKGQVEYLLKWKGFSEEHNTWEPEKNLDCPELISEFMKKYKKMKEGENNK
HP1α chromodomain alone, NCDΔ1–19 (amino acids 20–80) (Q61686, form named): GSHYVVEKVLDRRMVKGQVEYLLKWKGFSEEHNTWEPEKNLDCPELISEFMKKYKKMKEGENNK

Tests used:
Experiment in all cases: SAXS; molecular weight from forward scattering I(0) against lysozyme; 5, 10 and 15 mg/ml in 50 mM KPB pH 6.8, 500 mM NaCl, 5 mM DTT; 20 °C; both purified
[1] = target: un-phosphorylated HP1α chromodomain with N-terminal tail (unmod-NCD, amino acids 1–80) (mouse) (UniProt Q61686)
[2] = target: phosphorylated HP1α chromodomain with N-terminal tail (phos-NCD, amino acids 1–80, phosphorylated at Ser11–14) (mouse) (UniProt Q61686)
[3] = target: HP1α chromodomain alone, NCDΔ1–19 (amino acids 20–80) (mouse) (UniProt Q61686)

binding [1]: no binding (tested: 5, 10 and 15 mg/ml)
Substance: un-phosphorylated HP1α chromodomain with N-terminal tail (unmod-NCD, amino acids 1–80) (from UniProt Q61686 1-80) (domain or fragment)

binding [2]: no binding (tested: 5, 10 and 15 mg/ml)
Substance: phosphorylated HP1α chromodomain with N-terminal tail (phos-NCD, amino acids 1–80, phosphorylated at Ser11–14) (from UniProt Q61686 1-80) (domain or fragment)

binding [3]: no binding (tested: 5, 10 and 15 mg/ml)
Substance: HP1α chromodomain alone, NCDΔ1–19 (amino acids 20–80) (from UniProt Q61686 20-80) (domain or fragment)
